From the supplement of paper PMC10849652
Some of the results follow.

Sequences of proteins named here, by UniProt entry; tags and fusion partners are left off. A change or cut given only in a name is not applied to a line headed by its entry.
UniProt P21281, whole entry, looked up: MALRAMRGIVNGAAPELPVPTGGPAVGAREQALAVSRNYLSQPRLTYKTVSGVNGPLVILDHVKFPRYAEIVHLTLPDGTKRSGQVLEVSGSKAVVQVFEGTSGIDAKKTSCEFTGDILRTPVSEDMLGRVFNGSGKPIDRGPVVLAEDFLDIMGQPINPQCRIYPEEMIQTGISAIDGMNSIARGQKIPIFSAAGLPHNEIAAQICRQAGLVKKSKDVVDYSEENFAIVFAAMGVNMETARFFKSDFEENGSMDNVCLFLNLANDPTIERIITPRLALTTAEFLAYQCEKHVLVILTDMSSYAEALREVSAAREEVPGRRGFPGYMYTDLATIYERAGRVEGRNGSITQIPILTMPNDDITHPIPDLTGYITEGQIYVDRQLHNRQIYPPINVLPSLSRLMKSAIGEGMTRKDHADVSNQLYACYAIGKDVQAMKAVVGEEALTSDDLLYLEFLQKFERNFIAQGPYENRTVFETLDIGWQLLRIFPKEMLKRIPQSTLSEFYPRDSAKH
UniProt O75915: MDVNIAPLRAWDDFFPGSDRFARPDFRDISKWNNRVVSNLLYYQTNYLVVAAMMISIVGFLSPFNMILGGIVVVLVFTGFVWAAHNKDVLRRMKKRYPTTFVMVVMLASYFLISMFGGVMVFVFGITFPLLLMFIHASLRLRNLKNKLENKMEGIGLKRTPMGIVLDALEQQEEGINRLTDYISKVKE
UniProt P00966: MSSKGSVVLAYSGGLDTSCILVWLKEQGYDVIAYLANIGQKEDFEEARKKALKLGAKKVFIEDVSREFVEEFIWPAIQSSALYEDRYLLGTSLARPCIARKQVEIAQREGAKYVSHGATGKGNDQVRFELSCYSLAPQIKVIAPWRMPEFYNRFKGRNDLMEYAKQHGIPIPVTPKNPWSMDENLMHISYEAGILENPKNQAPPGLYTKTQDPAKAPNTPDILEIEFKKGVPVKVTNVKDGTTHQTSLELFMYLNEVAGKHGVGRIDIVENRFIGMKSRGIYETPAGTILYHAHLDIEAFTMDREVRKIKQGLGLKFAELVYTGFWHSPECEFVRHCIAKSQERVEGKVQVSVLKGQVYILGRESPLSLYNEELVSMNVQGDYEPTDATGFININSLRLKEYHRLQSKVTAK
UniProt P16615: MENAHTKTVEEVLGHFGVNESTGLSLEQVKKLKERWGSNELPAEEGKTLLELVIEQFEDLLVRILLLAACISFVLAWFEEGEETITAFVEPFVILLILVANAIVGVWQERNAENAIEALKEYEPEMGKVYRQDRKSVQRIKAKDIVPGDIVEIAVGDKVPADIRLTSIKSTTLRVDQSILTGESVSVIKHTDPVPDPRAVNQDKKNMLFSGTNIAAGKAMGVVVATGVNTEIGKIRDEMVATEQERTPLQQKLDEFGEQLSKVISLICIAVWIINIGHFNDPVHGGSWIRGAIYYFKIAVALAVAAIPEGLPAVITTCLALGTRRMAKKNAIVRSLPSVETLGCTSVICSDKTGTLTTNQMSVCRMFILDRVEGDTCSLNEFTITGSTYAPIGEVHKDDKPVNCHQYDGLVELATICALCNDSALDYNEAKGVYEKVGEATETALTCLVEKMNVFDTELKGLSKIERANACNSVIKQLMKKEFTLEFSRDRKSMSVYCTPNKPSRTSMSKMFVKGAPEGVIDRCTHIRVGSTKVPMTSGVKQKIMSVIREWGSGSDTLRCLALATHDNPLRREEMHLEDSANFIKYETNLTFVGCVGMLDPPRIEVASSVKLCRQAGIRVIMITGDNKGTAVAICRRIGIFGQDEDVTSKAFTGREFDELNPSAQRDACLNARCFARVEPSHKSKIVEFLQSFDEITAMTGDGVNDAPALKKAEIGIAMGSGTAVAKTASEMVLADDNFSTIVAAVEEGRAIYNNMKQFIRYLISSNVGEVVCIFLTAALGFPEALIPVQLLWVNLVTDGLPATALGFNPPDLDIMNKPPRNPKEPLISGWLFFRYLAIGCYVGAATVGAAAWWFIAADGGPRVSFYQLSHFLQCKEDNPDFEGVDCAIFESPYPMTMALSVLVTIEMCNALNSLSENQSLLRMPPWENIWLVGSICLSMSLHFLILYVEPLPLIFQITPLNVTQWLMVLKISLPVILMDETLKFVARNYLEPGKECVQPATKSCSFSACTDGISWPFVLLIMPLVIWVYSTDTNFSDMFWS
UniProt Q9ULH1: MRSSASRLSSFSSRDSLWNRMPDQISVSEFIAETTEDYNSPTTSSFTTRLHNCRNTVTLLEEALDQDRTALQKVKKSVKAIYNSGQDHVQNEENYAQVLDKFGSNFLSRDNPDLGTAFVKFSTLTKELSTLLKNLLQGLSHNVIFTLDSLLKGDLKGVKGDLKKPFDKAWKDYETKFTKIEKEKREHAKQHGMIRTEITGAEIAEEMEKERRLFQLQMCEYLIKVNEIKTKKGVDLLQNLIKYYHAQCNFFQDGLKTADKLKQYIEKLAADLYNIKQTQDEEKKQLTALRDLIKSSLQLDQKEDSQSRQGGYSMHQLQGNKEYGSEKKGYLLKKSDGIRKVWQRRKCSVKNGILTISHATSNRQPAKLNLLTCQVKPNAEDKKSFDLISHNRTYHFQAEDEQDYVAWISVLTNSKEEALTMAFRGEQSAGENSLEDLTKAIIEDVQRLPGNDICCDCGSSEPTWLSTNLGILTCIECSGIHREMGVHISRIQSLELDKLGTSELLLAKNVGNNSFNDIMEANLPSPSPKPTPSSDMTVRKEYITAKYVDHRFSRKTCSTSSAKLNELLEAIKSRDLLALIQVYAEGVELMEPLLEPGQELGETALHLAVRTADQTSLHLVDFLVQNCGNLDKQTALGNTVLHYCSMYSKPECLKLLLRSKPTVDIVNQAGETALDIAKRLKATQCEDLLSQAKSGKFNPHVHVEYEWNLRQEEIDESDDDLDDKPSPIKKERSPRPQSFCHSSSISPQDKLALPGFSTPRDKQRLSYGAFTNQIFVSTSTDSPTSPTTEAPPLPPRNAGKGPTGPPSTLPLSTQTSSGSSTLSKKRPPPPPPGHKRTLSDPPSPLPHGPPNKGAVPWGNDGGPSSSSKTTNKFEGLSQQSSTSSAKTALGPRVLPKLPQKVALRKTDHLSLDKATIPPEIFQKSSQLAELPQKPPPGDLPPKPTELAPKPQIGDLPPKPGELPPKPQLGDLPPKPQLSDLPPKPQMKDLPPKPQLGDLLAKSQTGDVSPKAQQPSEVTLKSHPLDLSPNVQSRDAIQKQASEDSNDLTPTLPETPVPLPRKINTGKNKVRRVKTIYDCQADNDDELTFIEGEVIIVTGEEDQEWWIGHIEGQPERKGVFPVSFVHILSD
UniProt O75947: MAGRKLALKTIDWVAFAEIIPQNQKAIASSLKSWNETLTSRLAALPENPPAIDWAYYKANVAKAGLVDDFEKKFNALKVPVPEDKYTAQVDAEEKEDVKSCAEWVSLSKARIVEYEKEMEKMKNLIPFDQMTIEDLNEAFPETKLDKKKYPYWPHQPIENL
UniProt O95671: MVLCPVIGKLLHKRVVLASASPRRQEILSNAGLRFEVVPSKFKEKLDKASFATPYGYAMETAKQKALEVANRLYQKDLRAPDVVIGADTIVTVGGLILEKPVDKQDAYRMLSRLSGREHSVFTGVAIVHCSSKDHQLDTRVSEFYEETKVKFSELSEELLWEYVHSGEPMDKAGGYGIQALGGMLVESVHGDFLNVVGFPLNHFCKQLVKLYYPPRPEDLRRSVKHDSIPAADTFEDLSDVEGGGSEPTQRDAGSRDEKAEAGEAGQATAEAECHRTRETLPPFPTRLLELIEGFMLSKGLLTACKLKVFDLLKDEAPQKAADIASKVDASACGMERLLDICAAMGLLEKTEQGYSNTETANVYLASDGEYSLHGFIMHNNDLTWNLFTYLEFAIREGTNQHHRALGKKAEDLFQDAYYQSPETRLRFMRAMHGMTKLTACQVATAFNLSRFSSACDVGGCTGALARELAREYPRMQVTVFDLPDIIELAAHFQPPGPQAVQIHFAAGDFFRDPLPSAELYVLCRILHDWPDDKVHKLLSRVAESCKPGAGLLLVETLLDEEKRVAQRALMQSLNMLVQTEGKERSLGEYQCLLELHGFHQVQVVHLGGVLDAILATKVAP
UniProt P04424, whole entry, looked up: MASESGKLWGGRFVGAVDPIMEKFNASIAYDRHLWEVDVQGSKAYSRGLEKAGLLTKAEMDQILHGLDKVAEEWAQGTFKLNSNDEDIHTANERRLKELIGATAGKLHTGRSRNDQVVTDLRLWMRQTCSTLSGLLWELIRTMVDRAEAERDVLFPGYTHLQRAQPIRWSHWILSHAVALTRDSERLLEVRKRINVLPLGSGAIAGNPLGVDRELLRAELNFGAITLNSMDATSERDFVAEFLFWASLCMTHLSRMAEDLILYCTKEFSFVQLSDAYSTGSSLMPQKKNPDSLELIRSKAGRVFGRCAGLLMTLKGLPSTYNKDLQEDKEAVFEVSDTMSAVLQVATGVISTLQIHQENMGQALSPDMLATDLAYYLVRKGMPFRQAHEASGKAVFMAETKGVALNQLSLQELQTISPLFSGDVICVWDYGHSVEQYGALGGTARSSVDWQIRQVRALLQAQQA
UniProt P18846: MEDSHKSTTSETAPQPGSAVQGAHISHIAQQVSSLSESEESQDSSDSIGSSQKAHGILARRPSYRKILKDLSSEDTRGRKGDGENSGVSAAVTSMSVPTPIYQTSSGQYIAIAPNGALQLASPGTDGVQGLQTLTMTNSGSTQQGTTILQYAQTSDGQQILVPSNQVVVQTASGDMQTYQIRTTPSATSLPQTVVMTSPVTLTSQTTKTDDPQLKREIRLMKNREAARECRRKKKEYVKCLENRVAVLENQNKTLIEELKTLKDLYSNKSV
UniProt Q9UBL3, whole entry, looked up: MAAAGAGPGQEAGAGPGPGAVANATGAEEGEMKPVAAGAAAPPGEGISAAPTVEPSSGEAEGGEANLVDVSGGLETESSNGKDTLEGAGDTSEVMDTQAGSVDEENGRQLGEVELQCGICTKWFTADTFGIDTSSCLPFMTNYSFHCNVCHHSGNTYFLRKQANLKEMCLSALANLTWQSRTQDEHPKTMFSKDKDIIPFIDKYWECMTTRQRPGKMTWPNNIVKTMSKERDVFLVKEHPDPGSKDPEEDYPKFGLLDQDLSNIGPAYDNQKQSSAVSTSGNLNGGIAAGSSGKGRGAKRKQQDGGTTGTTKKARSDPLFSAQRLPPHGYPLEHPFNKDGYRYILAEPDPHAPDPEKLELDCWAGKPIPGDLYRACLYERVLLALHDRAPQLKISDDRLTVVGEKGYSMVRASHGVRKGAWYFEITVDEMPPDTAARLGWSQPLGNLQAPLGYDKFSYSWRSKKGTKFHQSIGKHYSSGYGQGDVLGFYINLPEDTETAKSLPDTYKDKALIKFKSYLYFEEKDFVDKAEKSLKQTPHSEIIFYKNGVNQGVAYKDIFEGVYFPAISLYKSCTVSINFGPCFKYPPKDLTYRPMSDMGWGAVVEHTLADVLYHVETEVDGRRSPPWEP
UniProt Q13510, whole entry, looked up: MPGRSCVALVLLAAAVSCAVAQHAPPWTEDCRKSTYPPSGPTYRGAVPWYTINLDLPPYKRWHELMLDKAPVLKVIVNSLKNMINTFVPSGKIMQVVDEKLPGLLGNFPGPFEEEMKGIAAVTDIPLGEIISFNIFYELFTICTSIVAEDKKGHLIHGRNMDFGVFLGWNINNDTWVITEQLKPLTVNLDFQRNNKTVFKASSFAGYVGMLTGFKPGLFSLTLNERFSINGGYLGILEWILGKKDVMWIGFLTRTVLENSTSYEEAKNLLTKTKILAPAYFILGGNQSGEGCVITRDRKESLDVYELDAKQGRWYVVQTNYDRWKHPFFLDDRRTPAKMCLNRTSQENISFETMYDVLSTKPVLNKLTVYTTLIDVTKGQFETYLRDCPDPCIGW
UniProt P56381: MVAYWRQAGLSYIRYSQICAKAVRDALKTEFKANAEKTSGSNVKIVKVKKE
UniProt Q8N5I2: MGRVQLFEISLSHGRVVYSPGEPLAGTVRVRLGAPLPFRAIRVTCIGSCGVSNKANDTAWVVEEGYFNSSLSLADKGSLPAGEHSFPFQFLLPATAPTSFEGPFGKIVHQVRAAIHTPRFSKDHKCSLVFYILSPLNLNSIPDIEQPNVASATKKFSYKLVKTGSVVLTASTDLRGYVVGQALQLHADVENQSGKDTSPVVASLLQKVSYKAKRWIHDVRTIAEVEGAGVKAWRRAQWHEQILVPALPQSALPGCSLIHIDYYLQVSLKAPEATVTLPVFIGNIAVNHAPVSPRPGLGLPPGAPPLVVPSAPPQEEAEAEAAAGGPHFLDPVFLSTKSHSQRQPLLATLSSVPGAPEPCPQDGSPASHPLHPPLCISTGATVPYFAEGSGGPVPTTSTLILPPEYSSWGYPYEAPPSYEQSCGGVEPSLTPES
UniProt Q9NXU5: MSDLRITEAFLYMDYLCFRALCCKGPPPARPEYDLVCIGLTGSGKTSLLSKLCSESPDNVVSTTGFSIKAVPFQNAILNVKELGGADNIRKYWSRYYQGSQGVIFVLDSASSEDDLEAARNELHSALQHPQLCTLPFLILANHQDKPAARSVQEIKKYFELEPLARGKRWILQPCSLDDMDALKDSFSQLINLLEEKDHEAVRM

Assays:
Assay in all cases: log2 fold change, soluble protein after heating vs DMSO (PISA); higher = thermal stabilisation; K562 cells, 10 uM, 30 min; active = over 0.2 and 3.5 SD of the protein, either way, in both replicates (recomputed)
[1] = compound: NC(=O)Nc1cc(-c2cccc(F)c2)sc1C(=O)N[C@H]1CCCNC1
Method in brief: (§1)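 Values are thermal stability changes relative to control samples and are taken from duplicates. They are stated as log2 fold changes. Before quantification by TMTpro 16plex LC-MS/MS with equalised channel sums, K562 cells at 2×10^6 cells/mL were treated with 10 μM compound for 30 min, heated in aliquots for 3 min across 48°C-58°C, pooled, extracted in PBS with 0.5% NP-40 at 4°C, and centrifuged at 21,000xg for 90 min to give the soluble supernatant.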

[2] = compound: NC(=O)c1cnc(N[C@@H]2CCCC[C@@H]2N)nc1Nc1cccc(-n2nccn2)c1
Method in brief: as §1

[3] = compound: NC1(c2ccc(-c3nc4ccn5c(=O)[nH]nc5c4cc3-c3ccccc3)cc2)CCC1
Method in brief: as §1

[4] = compound: NCC(=O)Nc1ccc(-n2nc(C(F)(F)F)cc2-c2ccc3c(ccc4ccccc43)c2)cc1
Method in brief: as §1

entinostat = compound: Nc1ccccc1NC(=O)c1ccc(CNC(=O)OCc2cccnc2)cc1 [entinostat]
Method in brief: as §1

vorinostat = compound: O=C(CCCCCCC(=O)Nc1ccccc1)NO [vorinostat]
Method in brief: as §1

citarinostat = compound: O=C(CCCCCCNC(=O)c1cnc(N(c2ccccc2)c2ccccc2Cl)nc1)NO [citarinostat]
Method in brief: as §1

silmitasertib = compound: O=C(O)c1ccc2c(c1)nc(Nc1cccc(Cl)c1)c1ccncc12 [silmitasertib]
Method in brief: as §1

[5] = compound: O=C1NC(=O)C(c2cnc3ccccn23)=C1c1cn2c3c(cc(F)cc13)CN(C(=O)N1CCCCC1)CC2
Method in brief: as §1

[6] = compound: c1cc(OCCN2CCCCC2)cc(-c2n[nH]c3ccc(-c4nnc[nH]4)cc23)c1
Method in brief: as §1

Measured: log2 fold change

ARIH2 (UniProt O95376)
inactive: [1] -0.041 | [2] 0.021 | [3] -0.048 | [4] 0.047 | entinostat -0.02 | vorinostat -0.031 | citarinostat 0.025 | silmitasertib 0.031 | [5] -0.005 | [6] 0.004

ATP5PO (UniProt P48047)
inactive: [1] 0.012 | [2] 0.023 | [3] 0.016 | [4] 0.069 | entinostat -0.008 | vorinostat -0.039 | citarinostat -0.005 | silmitasertib -0.043 | [5] 0.001 | [6] 0.015

ATP1B3 (UniProt P54709)
inactive: [1] -0.065 | [2] -0.011 | [3] 0.066 | [4] 0.004 | entinostat -0.041 | vorinostat -0.007 | citarinostat 0.037 | silmitasertib 0.002 | [5] -0.057 | [6] -0.088

ATP6V1B2 (UniProt P21281)
inactive: [1] 0.001 | [2] -0.011 | [3] -0.084 | [4] 0.015 | entinostat -0.003 | vorinostat -0.026 | citarinostat -0.021 | silmitasertib -0.003 | [5] -0.058 | [6] -0.04

ARL6IP5 (UniProt O75915)
inactive: [1] -0.01 | [2] -0.016 | [3] 0.048 | [4] -0.042 | entinostat 0.019 | vorinostat -0.023 | citarinostat -0.003 | silmitasertib 0.054 | [5] 0.074 | [6] -0.041

ATG16L1 (UniProt Q676U5)
inactive: [1] -0.053 | [2] -0.053 | [3] -0.063 | [4] -0.018 | entinostat -0.044 | vorinostat 0.01 | citarinostat 0.028 | silmitasertib -0.005 | [5] -0.043 | [6] -0.01

ARPC3 (UniProt O15145)
inactive: [1] 0.028 | [2] 0.013 | [3] 0.008 | [4] 0.015 | entinostat -0.048 | vorinostat -0.046 | citarinostat -0.013 | silmitasertib 0.029 | [5] -0.049 | [6] 0.048

ARPP19 (UniProt P56211)
inactive: [1] -0.049 | [2] -0.075 | [3] -0.019 | [4] 0.046 | entinostat 0.027 | vorinostat -0.038 | citarinostat 0.1 | silmitasertib 0 | [5] 0.026 | [6] -0.051

ASS1 (UniProt P00966)
inactive: [1] -0.054 | [2] -0.184 | [3] -0.087 | [4] 0.026 | entinostat 0.096 | vorinostat -0.052 | citarinostat -0.037 | silmitasertib 0.02 | [5] -0.013 | [6] 0.013

ATG2B (UniProt Q96BY7)
inactive: [1] 0.01 | [2] -0.04 | [3] -0.075 | [4] -0.012 | entinostat -0.03 | vorinostat -0.046 | citarinostat 0.035 | silmitasertib 0.037 | [5] -0.014 | [6] 0.021

ATP2A2 (UniProt P16615)
inactive: [1] -0.017 | [2] -0.09 | [3] -0.069 | [4] -0.072 | entinostat 0.001 | vorinostat 0.001 | citarinostat 0.038 | silmitasertib 0.024 | [5] -0.017 | [6] -0.039

2 records drawn at random from the list so far:
ARPP19 (UniProt P56211)
inactive: [1] -0.049 | [2] -0.075 | [3] -0.019 | [4] 0.046 | entinostat 0.027 | vorinostat -0.038 | citarinostat 0.1 | silmitasertib 0 | [5] 0.026 | [6] -0.051

ATP2A2 (UniProt P16615)
inactive: [1] -0.017 | [2] -0.09 | [3] -0.069 | [4] -0.072 | entinostat 0.001 | vorinostat 0.001 | citarinostat 0.038 | silmitasertib 0.024 | [5] -0.017 | [6] -0.039

The list goes on.

ASNS (UniProt P08243)
inactive: [1] -0.033 | [2] -0.018 | [3] -0.019 | [4] 0.008 | entinostat -0.007 | vorinostat 0.018 | citarinostat 0.013 | silmitasertib -0.044 | [5] -0.021 | [6] -0.026

ASAP1 isoform 2 (UniProt Q9ULH1)
inactive: [1] -0.009 | [2] -0.088 | [3] -0.174 | [4] -0.058 | entinostat 0.063 | vorinostat 0.076 | citarinostat 0.08 | silmitasertib 0.011 | [5] -0.057 | [6] 0.005

ATP5PD (UniProt O75947)
inactive: [1] -0.044 | [2] 0.03 | [3] 0.043 | [4] 0.01 | entinostat 0.006 | vorinostat -0.028 | citarinostat 0.038 | silmitasertib -0.039 | [5] -0.061 | [6] 0

ASMTL (UniProt O95671)
inactive: [1] -0.04 | [2] -0.141 | [3] -0.256 | [4] -0.227 | entinostat 0.001 | vorinostat 0.075 | citarinostat -0.086 | silmitasertib -0.002 | [5] 0.084 | [6] -0.027

ATP6V1D (UniProt Q9Y5K8)
inactive: [1] 0.028 | [2] -0.012 | [3] -0.056 | [4] 0.027 | entinostat -0.034 | vorinostat 0.018 | citarinostat 0.024 | silmitasertib -0.026 | [5] 0.044 | [6] -0.009

ASL (UniProt P04424)
inactive: [1] 0.011 | [2] -0.004 | [3] -0.043 | [4] 0.006 | entinostat -0.027 | vorinostat 0.026 | citarinostat -0.009 | silmitasertib -0.024 | [5] -0.009 | [6] 0.007

ATF1 (UniProt P18846)
active: [5] 0.372
inactive: [1] 0.038 | [2] 0.096 | [3] 0.063 | [4] 0.127 | entinostat 0.066 | vorinostat -0.102 | citarinostat 0.144 | silmitasertib -0.146 | [6] -0.091

ASH2L (UniProt Q9UBL3)
inactive: [1] -0.025 | [2] -0.075 | [3] 0.002 | [4] -0.074 | entinostat 0.025 | vorinostat 0.013 | citarinostat 0.044 | silmitasertib 0.08 | [5] -0.064 | [6] -0.05

ASAH1 isoform 2 (UniProt Q13510)
inactive: [1] 0.023 | [2] -0.008 | [3] -0.153 | [4] -0.07 | entinostat 0.019 | vorinostat 0.046 | citarinostat 0.01 | silmitasertib 0.01 | [5] -0.032 | [6] 0.079

ATAD3B (UniProt Q5T9A4)
inactive: [1] 0.017 | [2] -0.029 | [3] -0.089 | [4] -0.088 | entinostat 0.013 | vorinostat 0.108 | citarinostat -0.016 | silmitasertib 0.005 | [5] 0.248 | [6] -0.104

ARPC5L (UniProt Q9BPX5)
inactive: [1] -0.016 | [2] -0.04 | [3] -0.009 | [4] -0.014 | entinostat -0.031 | vorinostat -0.052 | citarinostat 0.049 | silmitasertib 0.058 | [5] -0.032 | [6] -0.006

ARPC1B (UniProt O15143)
inactive: [1] -0.001 | [2] 0.136 | [3] -0.015 | [4] 0.189 | entinostat 0.012 | vorinostat -0.013 | citarinostat 0.143 | silmitasertib 0.007 | [5] -0.061 | [6] 0.022

ATG3 (UniProt Q9NT62)
inactive: [1] -0.026 | [2] -0.019 | [3] -0.066 | [4] 0.021 | entinostat -0.016 | vorinostat -0.006 | citarinostat 0.009 | silmitasertib -0.017 | [5] -0.049 | [6] -0.015

ATP2B4 (UniProt P23634)
inactive: [1] -0.103 | [2] 0.132 | [3] 0.074 | [4] 0.011 | entinostat -0.102 | vorinostat -0.079 | citarinostat 0.007 | silmitasertib 0.014 | [5] -0.197 | [6] -0.071

ASF1A (UniProt Q9Y294)
inactive: [1] 0.058 | [2] -0.026 | [3] -0.041 | [4] -0.019 | entinostat 0.057 | vorinostat 0.105 | citarinostat 0.047 | silmitasertib 0.007 | [5] -0.133 | [6] -0.038

ATP5F1E (UniProt P56381)
inactive: [1] 0.015 | [2] -0.013 | [3] -0.008 | [4] 0.005 | entinostat 0.003 | vorinostat -0.056 | citarinostat 0.022 | silmitasertib -0.006 | [5] -0.025 | [6] -0.01

ATP7B (UniProt P35670)
inactive: [1] -0.051 | [2] -0.139 | [3] -0.111 | [4] -0.15 | entinostat -0.003 | vorinostat 0.035 | citarinostat 0.005 | silmitasertib 0.036 | [5] -0.036 | [6] -0.023

ARRDC1 (UniProt Q8N5I2)
inactive: [1] 0.013 | [3] -0.06 | [4] 0.057 | entinostat 0.075 | vorinostat -0.086 | citarinostat 0.056 | silmitasertib 0.075 | [5] -0.008 | [6] -0.001

ATP5F1B (UniProt H0YI37)
inactive: [1] -0.445 | [4] -0.252 | entinostat -0.276 | vorinostat -0.031 | citarinostat -0.437 | [5] -0.28 | [6] -0.32

ARL15 (UniProt Q9NXU5)
inactive: [1] -0.049 | [2] 0.171 | [3] -0.094 | [4] 0.026 | entinostat 0.003 | vorinostat 0.028 | citarinostat 0.04 | silmitasertib 0.028 | [5] -0.027 | [6] -0.013
